# PubChem BioAssay AID445 (National Center for Advancing Translational Sciences (NCATS), 2006)
# Some of the results follow. Further columns of the screen follow, without active or inactive calls. The list favours compounds with an active or inconclusive main result. Potencies come from curve fits of mixed quality, noted in brackets.
# Assay: IkB Signaling
# Conditions: ABC-DLBCL IkBa-CBG/CBR dual luciferase ratio (green luciferase fused to IkBa over red control in OCI-Ly3 lymphoma cells), 4 h
# Outline: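 In this assay, an IκBα–CBG68 fusion accumulates when IKK-driven degradation is blocked; native CBR normalizes for cell number. OCI-Ly3 cells were treated 4 h with compound and doxycycline, then green and red light read after Chroma-Glo addition.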
# [1] = measured here: control luc red channel unless noted
compound,measurement,setting,value
O=C(NCCc1ccccc1)C1CCN(Cc2cc3ccccc3n2Cc2cccc(Cl)c2)CC1,AC50,[1],"10 µM [falling, partial curve]"
COc1ccc(CNC(=O)c2cc(=O)[nH]c3ccc(S(=O)(=O)N4CCCC4)cc23)c(OC)c1,AC50,[1],"1.26 µM [falling, full curve, poor fit]"
COc1ccc(Cl)cc1NC(=O)c1ccc2c(c1)CCN2S(C)(=O)=O,AC50,[1],"39.8 µM [falling, single point]"
COc1cccc(Nc2sc(C(=O)c3ccc(Cl)cc3)c(N)c2C(=O)NCc2ccc(C)cc2)c1,AC50,[1],"15.8 µM [falling, partial curve]"
CCOC(=O)CNc1ncnc2nc[nH]c12,AC50,[1],"25.1 µM [falling, partial curve]"
Cc1c(Cl)cccc1NC(=O)C1CCCN(c2ncnc3onc(C)c23)C1 (configuration not stated),AC50,[1],"39.8 µM [falling, single point]"
CCCCOc1ccc(NC2=NC3(CCCCC3)N=C(N)N2)cc1,AC50,[1],"20 µM [falling, partial curve]"
O=C(NCc1ccccc1Cl)c1ccc2c(c1)N(Cc1ccccc1)C(=O)CS2,AC50,[1],"10 µM [falling, partial curve]"
CC1CCN(S(=O)(=O)c2ccc3c(c2)c(=O)c(C(=O)NC(C)c2ccccc2)cn3C)CC1 (configuration not stated),AC50,[1],"12.6 µM [falling, partial curve]"
Cc1ccc(Cl)cc1N1CCN(C(=O)c2ccc3c(c2)CCN3S(=O)(=O)c2ccccc2)CC1,AC50,[1],"12.6 µM [falling, partial curve]"
Cc1ccc(-c2nnc(Nc3cccc(O)c3)c3ccccc23)cc1S(=O)(=O)NCC1CCCO1 (configuration not stated),AC50,[1],"20 µM [falling, partial curve]"
CC(=O)c1cccc(NC(=O)Nc2nnc(N3CCCC3)s2)c1,AC50,[1],"31.6 µM [falling, single point]"
CCOC(=O)c1c(C)n(-c2ccccc2)c2ccc(OC(=O)c3cccc(C)c3)cc12,AC50,[1],"0.631 µM [rising, full curve]"
COc1cccc(CNC(=O)c2ccc3c(=O)n4nc(Nc5ccccc5)sc4nc3c2)c1,AC50,[1],"20 µM [falling, partial curve]"
CCCOc1ccc(CNC(=O)c2ccc(C)c(-n3c(C)nc4cccnc43)c2)cc1,AC50,[1],"31.6 µM [falling, single point]"
COc1ccc2cc(-c3nnc(Nc4ccccc4)s3)c(=O)oc2c1,AC50,[1],"7.94 µM [falling, partial curve]"
CN(Cc1ccccc1)S(=O)(=O)c1ccc2[nH]c3c(c2c1)CCCCC3,AC50,[1],"12.6 µM [falling, partial curve]"
CCN1CCN(C(c2ccc(C)cc2)c2c(O)cc(C)n(Cc3ccco3)c2=O)CC1 (configuration not stated),AC50,[1],"3.16 µM [falling, partial curve]"
COc1ccc(-c2cc3nc(C)c(CCC(=O)N4CCN(c5ccc(F)cc5)CC4)c(C)n3n2)c(OC)c1,AC50,[1],"0.794 µM [falling, full curve]"
Cc1ccc(Nc2nc3ccccc3c3nnc(C)n23)c(C)c1,AC50,[1],"5.01 µM [falling, partial curve]"
Nn1c(SCC(=O)Nc2ccc(Oc3ccccc3)cc2)nnc1C1CC1,AC50,[1],"20 µM [falling, single point]"
CCn1c(C(=O)N2CCc3ccccc3C2)cc2sccc21,AC50,[1],"1 µM [falling, partial curve]"
CCCCN(CCCC)CCNC(=O)CN1C(=O)CSc2ccc(S(=O)(=O)N3CCOCC3)cc21,AC50,[1],"0.00631 µM [rising, full curve, poor fit]"
CC(=O)c1cccc(Nc2cc(C)nc3nc(Cc4ccccc4)nn23)c1,AC50,[1],"10 µM [falling, partial curve]"
COc1ccc(NC(=O)c2c(C)oc3ccc(O)c(CN4CCN(Cc5ccccc5)CC4)c23)cc1Cl,AC50,[1],"12.6 µM [falling, partial curve]"
CCn1c(SCc2cccc(C(F)(F)F)c2)nnc1-c1ccco1,AC50,[1],"7.94 µM [falling, partial curve]"
O=C(CC1C(=O)N(c2ccccc2)C(=O)N1CCc1cccs1)Nc1ccc(F)cc1 (configuration not stated),AC50,[1],"39.8 µM [falling, single point]"
O=C(NCCN1CCN(c2cccc(Cl)c2)CC1)Nc1ccccc1C(F)(F)F,AC50,[1],"12.6 µM [falling, partial curve]"
Cc1ccc(CNc2nc(-c3ccco3)nn2S(=O)(=O)c2ccc3ccccc3c2)cc1,AC50,[1],"10 µM [falling, partial curve]"
O=C(CSc1ncc(-c2ccccc2)[nH]1)Nc1ccc(Cl)cc1,AC50,[1],"12.6 µM [falling, partial curve]"
Cc1ccc(S(=O)(=O)Nc2cc3c(cc2NCc2ccccc2)n(C)c(=O)n3C)cc1,AC50,[1],"25.1 µM [falling, single point]"
O=C(Cn1c(=O)nc(-c2ccccc2)c2cc(Cl)ccc21)N1CCN(c2ccccc2F)CC1,AC50,[1],"15.8 µM [falling, partial curve, poor fit]"
Cc1c(C(=O)OCC(=O)c2ccc3c(c2)OCCO3)oc2ccccc12,AC50,[1],"25.1 µM [falling, single point]"
CCOC(=O)c1sc2ccccc2c1S(=O)(=O)N1CCN(c2cccc(C)c2)C(C)C1 (configuration not stated),AC50,[1],"0.316 µM [falling, full curve, poor fit]"
Cc1ccccc1CNC(=O)c1oc2c(c1C)-c1[nH]ncc1CC2,AC50,[1],"3.98 µM [falling, full curve]"
Cc1ccc2nc(Cl)c3cc(C(=O)N4CCCCC4C)sc3c2c1 (configuration not stated),AC50,[1],"39.8 µM [falling, single point]"
Cc1ccccc1Nc1nn2c(=O)c3ccc(C(=O)NCCc4ccc(Cl)cc4)cc3nc2s1,AC50,[1],"7.94 µM [falling, partial curve]"
COc1ccc(Cl)cc1NC(=O)CN1C(=O)C(C)(C)c2cc(S(=O)(=O)N3CCCCC3)ccc21,AC50,[1],"10 µM [falling, partial curve]"
CC(C)C1C(=O)Nc2ccc(S(=O)(=O)NCCc3ccc(Cl)cc3)cc21 (configuration not stated),AC50,[1],"31.6 µM [falling, partial curve]"
Cc1cccc(-n2ncc(C(=O)N3CCN(c4ccc(C)cc4C)CC3)c2C2CCN(C(=O)OC(C)(C)C)CC2)c1,AC50,[1],"15.8 µM [falling, partial curve]"
Cc1ccsc1CN(C(=O)c1oc2ccc(Br)cc2c1C)C1CCS(=O)(=O)C1 (configuration not stated),AC50,[1],"15.8 µM [falling, partial curve]"
Cc1ccc(Cl)cc1N1CCN(C(=O)c2c(C)oc3ncnc(N4CCCCC4)c23)CC1,AC50,[1],"39.8 µM [falling, single point]"
CCCCOc1cccc(C(=O)Nc2cc(NC(=O)c3ccco3)ccc2OC)c1,AC50,[1],"31.6 µM [falling, single point]"
CCc1cc(C(=O)Nc2sc(C)c(CC)c2C#N)no1,AC50,[1],"0.00631 µM [rising, full curve, poor fit]"
CC(c1ccccc1)n1cc2c(c1-c1ccccc1Br)c(=O)n(C)c(=O)n2C (configuration not stated),AC50,[1],"15.8 µM [falling, partial curve]"
Cc1ccc(CNC(=O)c2c(O)nc3cc(C)ccn3c2=O)cc1,AC50,[1],"31.6 µM [falling, single point]"
COc1cccc(NC(=O)CCc2c(C)nc3nc(CNC(=O)c4cccc(F)c4)nn3c2C)c1,AC50,[1],"31.6 µM [falling, single point]"
Cc1oc2ccc(O)c(CN3CCCC3)c2c1C(=O)Nc1ccc(C(C)C)cc1,AC50,[1],"31.6 µM [falling, single point]"
CCCn1c(CNc2ccc(Br)cc2)nc2ccccc21,AC50,measured here: IkB-luc green channel,"15.8 µM [falling, partial curve]"
same,AC50,measured here: control luc red channel,"6.31 µM [falling, partial curve]"
C#CCOc1ccc(-c2nnc(Nc3ccc(NC(C)=O)cc3)c3ccccc23)cc1,AC50,[1],"25.1 µM [falling, single point]"
CN1C(=O)c2cccc3c(S(=O)(=O)NCc4ccco4)ccc1c23,AC50,[1],"10 µM [rising, partial curve] [measured here: IkB-luc green channel]"
O=C(Nc1ccc(Cc2ccc(NC(=O)C3CC3)c(O)c2)cc1O)C1CC1,AC50,[1],"12.6 µM [falling, partial curve]"
CC(C)COc1ccc(C(=O)N2CCCCC2CCN2CCCCC2)cc1 (configuration not stated),AC50,[1],"39.8 µM [falling, single point]"
COc1ccc(CCNC(=O)c2cnn(-c3cccc(C)c3)c2C2CCN(C(=O)OC(C)(C)C)CC2)cc1OC,AC50,[1],"39.8 µM [falling, single point]"
Cc1cccc(-c2nnn3c2nc(NCc2ccc4c(c2)OCO4)c2ccccc23)c1,AC50,[1],"1.58 µM [falling, full curve]"
COc1ccccc1C1C(C(=O)c2sc(C)nc2C)=C(O)C(=O)N1CCN1CCOCC1 (configuration not stated),AC50,[1],"15.8 µM [falling, partial curve]"
COC(=O)c1c(NC(=O)c2nc3ccccc3s2)sc2c1CCN(C(C)=O)C2,AC50,[1],"6.31 µM [falling, partial curve]"
COc1ccc(-n2c(SCC(=O)N3CCc4ccccc43)nc3c([nH]c4ccccc43)c2=O)cc1,AC50,[1],"0.316 µM [rising, partial curve]"
CCOC(=O)C1CCCN(C(=O)Cn2ncc3c(C)n(Cc4ccccc4Cl)c(C)c3c2=O)C1 (configuration not stated),AC50,[1],"12.6 µM [falling, partial curve]"
CCCc1nc2ccccc2n1CC(O)COc1ccc(C(=O)OC)cc1 (configuration not stated),AC50,[1],"31.6 µM [falling, single point]"
O=C(Nc1ccc(Cl)cc1F)c1cnc2sc(N3CCOCC3)nn2c1=O,AC50,[1],"3.98 µM [rising, full curve]"

# Shown with tabs: entries from further up.
compound	measurement	setting	value
O=C(Cn1c(=O)nc(-c2ccccc2)c2cc(Cl)ccc21)N1CCN(c2ccccc2F)CC1	AC50	[1]	15.8 µM [falling, partial curve, poor fit]
Cc1c(C(=O)OCC(=O)c2ccc3c(c2)OCCO3)oc2ccccc12	AC50	[1]	25.1 µM [falling, single point]
CCOC(=O)c1sc2ccccc2c1S(=O)(=O)N1CCN(c2cccc(C)c2)C(C)C1 (configuration not stated)	AC50	[1]	0.316 µM [falling, full curve, poor fit]
